# Measurements: PubChem BioAssay AID504467 (National Center for Advancing Translational Sciences (NCATS), 2011)
# Hit rate of the full screen: of about 330,000 compounds, about 7,700 (2.3%) were called active. Inconclusive means that the source gave no clear call. Such entries were picked first, then a sample of the others. The call rests on the fitted dose curve; in most records, active means well fitted inhibition curve with a large enough effect; inconclusive means small, poorly fitted or top-dose-only effect, or effect the other way; inactive means flat fitted curve, though single readings scatter. Where the call is inconclusive, the potency comes from a doubtful curve fit.
# Assay: qHTS screen for small molecules that inhibit ELG1-dependent DNA repair in human embryonic kidney (HEK293T) cells expressing luciferase-tagged ELG1; further: nearly all actives have a fitted effect of over 55% in size
# Conditions: HEK293T ELG1-luciferase reporter, luminescence, 16 h, DNA damage induced by 5-fluorouridine; activity change, negative = inhibition: at 46.1 µM (top of the series)
# Method in brief: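 Quantitative HTS, concentration-response format. 2,000 cells/well co-treated with 5-fluorouridine and compound, 16 hr in 5% CO2 at 37 °C; ONE-Glo luminescence read after 30 min.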
# On the % scale 0 is the no-effect control and ±100 the full control effect; potency means the concentration at half of the fitted maximal effect.
Structure (SMILES),Potency,"activity change, negative = inhibition"
CC1CCCC(NC(=O)CNC(=S)N(Cc2ccccc2)Cc2cccs2)C1C (stereo not given),"inconclusive: 14.6 µM [inhibitor, single point]",
O=C(CCSCc1ccccc1)Nc1ccc2c(c1)OCCO2,"inconclusive: 16.4 µM [activator, partial curve, poor fit]",
Cc1csc(NC(=O)c2cc(C)nc3ccccc23)n1,,inactive: -4.54%
CC(C)c1ccc(OCC(=O)NCCO)cc1,"inconclusive: 20.6 µM [activator, partial curve]",
COc1ccc([C@H]2CC(=O)C=C(c3ccc4c(c3)OCO4)C2)cc1OC,"inconclusive: 23.1 µM [inhibitor, partial curve, poor fit]",
COC(=O)CCC(=O)NC(=S)Nc1sc(C)c(C)c1C(N)=O,,inactive: -0.193%
CC(C)Sc1ccccc1C(=O)Nc1ccc2c(c1)n(C)c(=O)n2C,"inconclusive: 29.1 µM [activator, single point]",
O=C(COC(=O)c1cncc(Br)c1)NCc1ccco1,"inconclusive: 18.4 µM [activator, partial curve, poor fit]",
Cc1sc(NC(=O)C2CC(Cl)=CCC2C(=O)O)c(C#N)c1C (stereo not given),,inactive: 5.25%
COc1ccccc1N/C=C(\C#N)c1nc2ccccc2[nH]1,"inconclusive: 18.3 µM [activator, single point]",
CCC(=O)c1cn(CCOc2ccccc2OC)c2ccccc12,"inconclusive: 18.3 µM [inhibitor, partial curve]",
Cc1ccc(-n2c(SCC(=O)NCc3ccco3)nc3c(sc4ccccc43)c2=O)cc1,"inconclusive: 25.9 µM [inhibitor, partial curve]",
O=[N+]([O-])c1c(NCCO)cc(N2CCCCCC2)c2nonc12,,inactive: -1.48%
O=C(CCn1nnnc1CN1CCOCC1)N1CCC(c2ccccc2F)C1 (stereo not given),,inactive: -0.483%
COc1ccc(-c2nnc(NC(=O)C3=COCCO3)o2)cc1,"inconclusive: 20.6 µM [activator, single point]",
CCOC(=O)c1c(O)c(Cl)c(C)[nH]c1=O,,inactive: 0%
CC1(C)C2CCC1(C)C(OCC[N+](C)(C)CC(=O)OC1CCCCC1)C2 (stereo not given),"inconclusive: 20.6 µM [inhibitor, partial curve, poor fit]",
CCCn1nc(C(=O)Nc2cc(S(=O)(=O)Nc3ccc(OC)cc3)ccc2O)c2ccccc2c1=O,active: 16.4 µM,
COc1ccccc1CNC(=O)CCCc1ccccc1,"inconclusive: 29.1 µM [activator, single point]",
Fc1ccc(CSc2nnc(-c3cccs3)o2)cc1,"inconclusive: 25.1 µM [activator, single point]",

# Arranged by count of non-hydrogen atoms (high to low): some entries from above.
Structure (SMILES),Potency,"activity change, negative = inhibition"
CC1CCCC(NC(=O)CNC(=S)N(Cc2ccccc2)Cc2cccs2)C1C (stereo not given),"inconclusive: 14.6 µM [inhibitor, single point]",
CC1(C)C2CCC1(C)C(OCC[N+](C)(C)CC(=O)OC1CCCCC1)C2 (stereo not given),"inconclusive: 20.6 µM [inhibitor, partial curve, poor fit]",
COc1ccc(-c2nnc(NC(=O)C3=COCCO3)o2)cc1,"inconclusive: 20.6 µM [activator, single point]",
